Data reported in PMC5993806.
Results are given in words; binding and its absence hold for the method and conditions named. Binding seen in cells or lysates may run through a third protein. These calls come from enrichment with a bait or labelling near it, and not all partners need be listed.

Amino acid sequences for entries named in this document (tags omitted).
UniProt Q9Y3Z3: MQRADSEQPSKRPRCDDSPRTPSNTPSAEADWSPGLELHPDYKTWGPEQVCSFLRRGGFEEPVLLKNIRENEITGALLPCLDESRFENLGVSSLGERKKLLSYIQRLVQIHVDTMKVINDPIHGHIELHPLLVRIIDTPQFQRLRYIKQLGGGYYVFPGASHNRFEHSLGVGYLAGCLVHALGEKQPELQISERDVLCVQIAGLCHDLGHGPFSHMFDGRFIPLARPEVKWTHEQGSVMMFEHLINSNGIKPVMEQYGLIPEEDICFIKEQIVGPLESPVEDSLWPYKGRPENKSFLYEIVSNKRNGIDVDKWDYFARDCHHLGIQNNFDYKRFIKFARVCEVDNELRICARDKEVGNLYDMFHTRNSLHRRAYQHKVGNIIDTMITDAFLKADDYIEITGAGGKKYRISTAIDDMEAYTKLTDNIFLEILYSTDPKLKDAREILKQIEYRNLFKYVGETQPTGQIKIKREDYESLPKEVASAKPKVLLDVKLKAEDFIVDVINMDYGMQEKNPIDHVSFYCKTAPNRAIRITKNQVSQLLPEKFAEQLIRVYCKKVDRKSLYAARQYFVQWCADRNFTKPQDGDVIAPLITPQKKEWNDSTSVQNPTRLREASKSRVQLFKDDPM
UniProt P30153: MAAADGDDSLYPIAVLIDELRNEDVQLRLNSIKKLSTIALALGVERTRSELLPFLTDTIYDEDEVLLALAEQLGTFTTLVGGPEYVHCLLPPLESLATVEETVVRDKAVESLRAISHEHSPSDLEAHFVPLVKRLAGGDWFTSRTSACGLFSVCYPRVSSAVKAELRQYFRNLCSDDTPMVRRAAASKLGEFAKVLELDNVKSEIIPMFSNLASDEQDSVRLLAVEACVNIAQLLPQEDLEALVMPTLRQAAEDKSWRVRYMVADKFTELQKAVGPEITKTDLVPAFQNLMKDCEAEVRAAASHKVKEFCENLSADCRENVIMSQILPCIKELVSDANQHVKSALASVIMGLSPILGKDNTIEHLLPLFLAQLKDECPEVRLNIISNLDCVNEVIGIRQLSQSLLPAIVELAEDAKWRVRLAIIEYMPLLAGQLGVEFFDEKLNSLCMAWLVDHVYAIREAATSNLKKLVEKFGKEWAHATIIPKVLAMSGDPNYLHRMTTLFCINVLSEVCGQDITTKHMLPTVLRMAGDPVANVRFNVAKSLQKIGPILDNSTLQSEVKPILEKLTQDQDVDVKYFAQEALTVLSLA

Legend:
GFP-SAMHD1 (human) = GFP-SAMHD1 (human) (UniProt Q9Y3Z3); experiment: affinity purification with mass spectrometry; anti-GFP trapping of lysates of GFP or GFP-SAMHD1 overexpressing HEK293T cells; four washes with NENT300 (300 mM NaCl, 0.1% NP40); on-bead trypsin digestion, nano-LC-MS/MS
CBP-SBP-SAMHD1 (human) = CBP-SBP-SAMHD1 (human) (UniProt Q9Y3Z3); experiment: affinity purification with mass spectrometry; tandem-affinity purification of CBP-SBP-SAMHD1 from HEK293T cells; in-gel digestion; MS

binding (GFP-SAMHD1 (human)): binds
binding (CBP-SBP-SAMHD1 (human)): binds
Substance: PP2A Aα subunit (from UniProt P30153 1-589)
